In article PMC5063967, “EIN2-dependent regulation of acetylation of histone H3K14 and non-canonical histone H3K23 in ethylene signalling” (Nature Communications, 2016):
These are yes or no findings as the source states them, for the method shown. Some entries that bind do so weakly or less than the wild type. Tags and fused reporters may be left off the sequences shown.

Target: T1, EIN2 C-terminal end (from 808 aa through 1294 aa of EIN2), yeast two-hybrid fusion (Arabidopsis) (UniProt Q9S814)
T1 sequence: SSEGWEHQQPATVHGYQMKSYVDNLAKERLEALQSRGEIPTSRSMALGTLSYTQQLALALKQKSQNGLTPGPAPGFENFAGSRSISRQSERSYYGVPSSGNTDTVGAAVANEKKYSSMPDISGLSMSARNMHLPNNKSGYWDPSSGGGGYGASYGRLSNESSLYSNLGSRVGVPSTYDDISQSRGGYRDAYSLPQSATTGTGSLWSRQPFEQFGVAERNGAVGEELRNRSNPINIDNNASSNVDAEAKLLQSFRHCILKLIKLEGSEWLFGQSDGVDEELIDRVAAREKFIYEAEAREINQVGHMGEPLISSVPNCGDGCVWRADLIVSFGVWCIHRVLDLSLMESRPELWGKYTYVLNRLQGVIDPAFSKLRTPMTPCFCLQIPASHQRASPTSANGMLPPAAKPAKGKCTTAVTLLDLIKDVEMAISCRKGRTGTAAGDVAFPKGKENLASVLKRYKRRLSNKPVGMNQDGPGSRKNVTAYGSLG
Assay: two-hybrid; yeast two-hybrid screen with EIN2 CEND (808-1294); growth on -Leu, -Trp, -His with 20 mM 3-AT and an X-Gal filter assay

B1: EIN2 nuclear associated protein 1 (ENAP1), yeast two-hybrid fusion (protein, UniProt Q8VZI9 1-249)
chain: METTPETQSKTHRLPAGREDWWSEDATATLIEAWGDRYVNLNRGNLRQNDWKEVADAVNSSHGNGRPKTDVQCKNRIDTLKKKYKTEKAKPLSNWCFFDRLDFLIGPVMKKSSGAVVKSALMNPNLNPTGSKSTGSSLDDDDDDDDDDEEDDDDAGDWGFVVRKHRKVEDVDSSEGSAFRELARSILKLGEAFERIEGKKQQMMIELEKQRMEVAKELELQRMNMLMEMQLELEKSKLGKRRAASGKKL
  binding: binds
